In PMC10458893, “Design of Protegrin-1 Analogs with Improved Antibacterial Selectivity” (Pharmaceutics, 2023):
Positions of bridges follow the written chain, without caps; N, C: chain ends. Residues, ends and D or L forms follow the SMILES beside them.

Test system: all the test strains
Format: cell-based
Conditions: 128 μM used for MHC when less than 2% hemolysis at 64 μM
Description: The antimicrobial activity of the peptides was determined using two-fold serial dilutions in sterile 96-well flat-bottom polystyrene microplates (Eppendorf, Hamburg, Germany) (Cat. No. 0030730011), as previously described. The following strains of bacteria were used: E. coli ATCC 25922, E. coli ML35p (ATCC collection), E. coli BW 25113 (Keio collection), Pseudomonas aeruginosa PAO1 (ATCC collection), P. aeruginosa ATCC 27853, Klebsiella pneumoniae ATCC 700603, Staphylococcus aureus 209P (ATCC collection), S. aureus ATCC 29213, and Micrococcus luteus B-1314 (VKM collection). Acinetobacter baumannii (strain XDR CI 2675) was provided by the I.M. Sechenov First Moscow State Medical University hospital. After a 24 h incubation period, the metabolic activity of the bacteria was assessed by adding 20 µL of a redox indicator, resazurin (Sigma-Aldrich, St. Louis, MO, USA), at a concentration of 0.1 mg/mL, to the wells. The plate was then incubated for a further two hours. The minimum inhibitory concentration (MIC) was determined as the lowest concentration of the peptide at which no color change in the resazurin indicator was observed. The results were presented as median values, which were determined based on at least three independent experiments carried out in triplicate.

CC(C)C[C@H](NC(=O)[C@H](CCCNC(=N)N)NC(=O)CNC(=O)CNC(=O)[C@@H](N)CCCNC(=N)N)C(=O)N[C@H]1CSSC[C@@H](C(=O)N[C@@H](CCCNC(=N)N)C(=O)NCC(=O)N[C@@H](CCCNC(=N)N)C(=O)O)NC(=O)[C@H](C(C)C)NC(=O)[C@@H]2CSSC[C@H](NC(=O)[C@H](Cc3ccc(O)cc3)NC1=O)C(=O)N[C@@H](CCCNC(=N)N)C(=O)N[C@@H](CCCNC(=N)N)C(=O)N[C@@H](CCCNC(=N)N)C(=O)N[C@@H](Cc1ccccc1)C(=O)N2 [[V16R]] (H-RGGRLCYCRRRFCVCRGR-OH; disulfide 6-15, 8-13)
TI, therapeutic index (ratio of the MHC to the MIC (GM)): 60.6
